Results of single-concentration screens

The values are deposited in ChEMBL (CHEMBL3988442, “University of Dundee, Small-Polar-MMV Screening Library” (2021)).

Toxoplasma: 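Assay of Toxoplasma gondii numbers, read through their beta-galactosidase reporter with a colour substrate. Concentration: 10 µM. Higher reads as fewer parasites (inferred from which compounds were picked for retests). Of about 67,000 compounds tested this way, about 260 (0.38%) reached 50% or more in at least one test.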
Leishmania in macrophages: 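Cell assay of Leishmania donovani living inside macrophages; the read-out is not stated. Tested at 30 µM. The record gives no direction; compounds that gave an IC50 in retests scored well above the rest, so higher reads as stronger inhibition. About 69,000 compounds were tested under these conditions; 1.5% (about 1,000) showed 50% or more at least once.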

Values are the deposited “Percent Effect”, in %. The record does not define 0% and 100%; most values in the screen are far below 50% and negative numbers occur (in some assays of this library far below -100). Compounds were drawn at random from those tested, without regard to their results. Two or more numbers in one place are separate tests of the same structure; such repeats can differ widely. A dash means the value is not listed here; it may have been measured.

| # | SMILES | Toxoplasma | Leishmania in macrophages |
|---|---|---|---|
| 1 | `CCOCCN1CCN(CCC(=O)N2CCCCC2)CC1` | -7.828 | 18.17 |
| 2 | `CCC(NC(=O)NCc1cccc(N(C)C)n1)c1nccs1` (stereo not shown) | -28.62 | 33.14 |
| 3 | `O=C(NCC(Cc1cccc(F)c1)N1CCCC1=O)c1ccccc1` (stereo not shown) | -3.394 | 38.09 |
| 4 | `CC(C)c1n[nH]c(C2CN(Cc3nnc(C4CC4)n3C)CCO2)n1` (stereo not shown) | 0.8107 | 17.37 |
| 5 | `O=C1CC(c2ccccc2F)c2c(n(C3CCCC3)[nH]c2=O)N1` (stereo not shown) | 4.184 | 4.084 |
| 6 | `Cn1nc(C(=O)NC2CCCCC2)cc1NC(=O)C1CC1` | 7.109 | -1.341 |
| 7 | `CC(=O)N1CCCN(c2nccc(-c3c(C)nn(C)c3C)n2)CC1` | 2.087 | 31.29 |
| 8 | `CCOCCCC(=O)NCc1ccc(N2CCCCC2)cc1` | -7.18 | 3.752 |
| 9 | `Cc1cnc(CNC(=O)C2CCOc3ccccc3C2)cn1` (stereo not shown) | -7.018 | -54.05 |
| 10 | `CCc1ccc2c(C3CN(S(C)(=O)=O)C3)ncn2c1` | -1.199 | 0.911 |
| 11 | `O=C(COCCc1ccccc1)N1CCCC(n2cccn2)C1` (stereo not shown) | 2.548 | -5.382 |
| 12 | `COCCCC1(C(=O)O)CCCN(C(=O)c2ccc(Cl)cc2F)C1` (stereo not shown) | -16.31 | 19.03 |
| 13 | `CC(C)C1CN(S(=O)(=O)Cc2cccc(C#N)c2)CCS1` (stereo not shown) | 4.661 | 5.892 |
| 14 | `Cc1cc2c(=O)n(CCOCCO)cnc2s1` | -33.11 | 6.006 |
| 15 | `Cc1nc2c(c(N3CCC(CCn4cccn4)CC3)n1)CCNCC2` | 0.4464 | -36.66 |
| 16 | `O=C(O)C(F)(F)F.[H][C@@]12CCN(Cc3sccc3C)C[C@]1(C(=O)N1CCCO1)CCO2` | 3.699 | 1.617 |
| 17 | `CSC(C)C(=O)NS(=O)(=O)CCc1ccccc1` (stereo not shown) | 3.725 | -2.095 |
| 18 | `CCC(C(=O)N1CCN(S(=O)(=O)N2CCCC2)CC1)n1cccn1` (stereo not shown) | 17.23 | 10.25 |
| 19 | `CN(C)C(=O)c1cccc(NC(=O)N(CCO)Cc2ccsc2)c1` | -14.89 | 4.131 |
| 20 | `Cc1nc[nH]c1-c1c(-c2ccccc2)ncn1C1CCNC1` (stereo not shown) | 1.021 | -1.128 |
| 21 | `CCn1cc(CN2CCCC(c3[nH]ncc3-c3ccc(F)cc3)C2)cn1` (stereo not shown) | -8.528 | 34.4 |
| 22 | `Cc1nc(C)n(CC2CCCN(CC(=O)N3CCCC3)C2)n1` (stereo not shown) | 9.415 | 11.66 |
| 23 | `COc1ccc(CCN)cc1-c1ccc(C(N)=O)cc1` | 3.895 | 12.6 |
| 24 | `Cc1ccc(O)c(CNCC(C)c2nc3ccccc3o2)n1` (stereo not shown) | 1.705 | 9.9 |
| 25 | `Fc1ccc(CN2CCCC2c2cncc(-n3ccnc3)n2)cc1` (stereo not shown) | -8.515 | 11.88 |
| 26 | `O=C(O)C(F)(F)F.[H][C@@]12CCCO[C@]1([H])[C@@H](NC(=O)c1cnn(C)c1)CN2Cc1nccs1` | 21.52 | 15.38 |
| 27 | `O=C(C1CCCC1)N1CCCC1c1nnc2n1CCCCC2` (stereo not shown) | 26.48 | -34.33 |
| 28 | `O=C(NCc1nnc2n1CCC2)c1cn(-c2ccccc2Br)nn1` | -7.112 | 34.11 |
| 29 | `CC(CO)NC(=O)Nc1ccc(COC2CCCC2)cc1` (stereo not shown) | -11.62 | 3.293 |
| 30 | `O=C(Cc1ccccc1)N1CCC2(CCN2Cc2ccc(F)cc2)C1.O=C(O)C(F)(F)F` (stereo not shown) | -5.732 | 13.33 |
| 31 | `CN(c1ccc(C(=O)NCCCN2CCCCC2)c(Cl)c1)S(C)(=O)=O` | -12.91 | 0.8509 |
| 32 | `CN1CCN([C@@H]2CCN(CC3=Cc4cc(Cl)ccc4OC3)C[C@H]2O)CC1` | 9.086 | 96.13 |
| 33 | `CCN1CCCC1CNCc1cc2ccccc2[nH]c1=O` (stereo not shown) | - | 31.75 |
| 34 | `CS(=O)(=O)NCc1cnc2n1CCN(Cc1ccco1)CC2.O=C(O)C(F)(F)F` | 7.84 | -1.586 |
| 35 | `COc1ccccc1[C@@H]1CN(Cc2csc(C(C)=O)c2)C[C@H]1C(=O)O` | 8.947 | 22.61 |
| 36 | `O=C(NCc1ccnc(OCC(F)(F)F)c1)NCC1CCCO1` (stereo not shown) | -1.66 | 14.77 |
| 37 | `[H][C@@]12C[C@@H](c3nnc(C)[nH]3)O[C@]1([H])CN(C(=O)C1CC1)C2` | -47.41 | 15.1 |
| 38 | `CCc1nc(C)c([C@H]2CN(C)C[C@@H]2C(=O)NCc2ccccn2)[nH]1` | -0.5663 | 29.15 |
| 39 | `COc1ccccc1-c1ncc(CN2CCCC(CCC(N)=O)C2)s1` (stereo not shown) | 12.29 | 8.827 |
| 40 | `O=C1CN(C(=O)CSC2CCCc3ccccc32)CCN1` (stereo not shown) | -10.57 | 20.46 |
| 41 | `COc1cc2c(nn1)CCN(CC(O)COc1ccc(C#N)cc1)C2` (stereo not shown) | 2.065 | -3.685 |
| 42 | `[H][C@@]12COCC[C@]1([H])C[C@H](N(CC(=O)NC)S(=O)(=O)c1ccccc1)C2` | 12.13 | -15.54 |
| 43 | `Cc1cccc(CNC(Cn2cncn2)c2ccccc2)c1C` (stereo not shown) | -0.8083 | 16.99 |
| 44 | `CCn1cc(CN(C)C(=O)C(c2ccccc2C)N(C)C)cn1` (stereo not shown) | -4.255 | 16.59 |
| 45 | `O=C(O)c1ccccc1-c1cnc(CNC(=O)C2CCOCC2)nc1` | -7.387 | 13.57 |
| 46 | `Cc1ncc(CN(C)CC(O)c2ccc(Br)cc2)s1` (stereo not shown) | 15.47 | 13.63 |
| 47 | `Cc1nn(C)c(C)c1C1CCCN1C(=O)c1ccc2nnc(C)n2c1` (stereo not shown) | -17.44 | 22.91 |
| 48 | `Cc1cc(C)c(CNC(=O)NCC(O)c2ccccc2)c(=O)[nH]1` (stereo not shown) | 0.3974 | 6.566 |
| 49 | `Cc1c(F)cc(C(=O)O)cc1S(=O)(=O)Nc1ccccc1` | -1.565 | 12.62 |
| 50 | `CN1CCN([C@@H]2CN(C(=O)CCOc3ccccc3)C[C@H]2O)CC1` | 23.44 | 23.88 |
| 51 | `Cc1cccc(C2(O)CCN(Cc3ccccc3N3CCCC3)CC2)c1` | 23.73 | -7.576 |
| 52 | `CC(=O)c1c(C)nn(CC(=O)Nc2ccc(Br)cc2)c1C` | 96.91 | 17.01 and -13.79 |
| 53 | `CCn1cnnc1CNC(=O)N1CCN(c2ccccc2Cl)CC1` | 10.19 | -1.891 |
| 54 | `C[C@@H](CO)NC(=O)c1ccc2nc(NS(C)(=O)=O)sc2c1` | - | 55.63 |
| 55 | `Cc1nn(C)c(Cl)c1C1CCCN1CCc1ccccn1` (stereo not shown) | -5.793 | 27.75 |
| 56 | `Cc1nn(C)c2cnn(Cc3ccc(C(=O)N4CCN(C)CC4)o3)c12` | -3.831 | 8.217 |
| 57 | `COCCNC(=O)c1sccc1N(C)S(=O)(=O)c1ccc(Cl)cc1` | -18.13 | -22.25 |
| 58 | `Cc1cccc(NC(=O)CN(C)C(=O)c2ccc(OC(C)C)nc2)n1` | -8.451 | 16.13 |
| 59 | `Cn1nc(C2CCNC2)c2c(C(=O)NC3CC3)cc(C3CC3)nc21` (stereo not shown) | -10.75 | 11.33 |
| 60 | `O=C(O)C(F)(F)F.[H][C@@]12COC[C@@H](C(=O)N3CCCCO3)[C@]1([H])CN(c1ccncn1)C2` | -5.239 | 28.82 |
| 61 | `COc1cccc2c1OCC(CNc1ccc(C)nn1)C2` (stereo not shown) | -31.57 | -26.38 |
| 62 | `Cc1nccc(-c2cccc(NCC(=O)N3CCCCCCC3)c2)n1` | -3.327 | 3.091 |
| 63 | `CSC(CNS(N)(=O)=O)c1cccc(Cl)c1` (stereo not shown) | -1.123 | -17.99 |
| 64 | `CN(CCCNC(=O)NCc1ccncc1)CC(F)(F)F` | 4.71 | 11.45 |
| 65 | `Cc1cc(-c2cnc(NC3CC3)nc2-c2ccoc2)on1` | -5.108 | 16.91 |
| 66 | `COc1cc(C)nc(N2CCN(C(=O)CN(C)C3CC3)CC2)n1` | -24.59 | 28.86 |
| 67 | `CCN1CCN(c2ncc(-c3cc(C)no3)c(-c3ccc(C)s3)n2)CC1` | 4.036 | 1.739 |
| 68 | `CC(C)(CO)CCCNC(=O)N1CCc2c(F)ccc(F)c2C1` | 3.96 | -32.7 |

Once more, the final 8:

| SMILES | Toxoplasma | Leishmania in macrophages |
|---|---|---|
| `COc1cccc2c1OCC(CNc1ccc(C)nn1)C2` (stereo not shown) | -31.57 | -26.38 |
| `Cc1nccc(-c2cccc(NCC(=O)N3CCCCCCC3)c2)n1` | -3.327 | 3.091 |
| `CSC(CNS(N)(=O)=O)c1cccc(Cl)c1` (stereo not shown) | -1.123 | -17.99 |
| `CN(CCCNC(=O)NCc1ccncc1)CC(F)(F)F` | 4.71 | 11.45 |
| `Cc1cc(-c2cnc(NC3CC3)nc2-c2ccoc2)on1` | -5.108 | 16.91 |
| `COc1cc(C)nc(N2CCN(C(=O)CN(C)C3CC3)CC2)n1` | -24.59 | 28.86 |
| `CCN1CCN(c2ncc(-c3cc(C)no3)c(-c3ccc(C)s3)n2)CC1` | 4.036 | 1.739 |
| `CC(C)(CO)CCCNC(=O)N1CCc2c(F)ccc(F)c2C1` | 3.96 | -32.7 |